This is one part of the list.
How the values were obtained:
Test in all cases: log2 fold change, soluble protein after heating vs DMSO (PISA); higher = thermal stabilisation; K562 lysate, 10 uM; active = over 0.2 and 3.5 SD of the protein, either way, in both replicates (recomputed)
[1] = compound: NCC(=O)Nc1ccc(-n2nc(C(F)(F)F)cc2-c2ccc3c(ccc4ccccc43)c2)cc1
Procedure, shortened: (§1)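 Values give the log-two fold change in thermal stability against solvent controls, from duplicates. Crude K562 extract at 1 mg/mL protein, made by dounce homogenisation in PBS pH 7.4 with 1 mM MgCl2, was treated with 10 μM compound for 30 min. After 3 min heating across 48°C-58°C, aliquots were pooled, adjusted to 0.5% NP-40 at 4°C and centrifuged at 21,000xg for 90 min. The supernatant was measured by TMTpro 16plex LC-MS/MS with channel sums equalised.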

Sequences of proteins named here, by UniProt entry; tags and fusion partners are left off. A change or cut given only in a name is not applied to a line headed by its entry.
UniProt Q15942: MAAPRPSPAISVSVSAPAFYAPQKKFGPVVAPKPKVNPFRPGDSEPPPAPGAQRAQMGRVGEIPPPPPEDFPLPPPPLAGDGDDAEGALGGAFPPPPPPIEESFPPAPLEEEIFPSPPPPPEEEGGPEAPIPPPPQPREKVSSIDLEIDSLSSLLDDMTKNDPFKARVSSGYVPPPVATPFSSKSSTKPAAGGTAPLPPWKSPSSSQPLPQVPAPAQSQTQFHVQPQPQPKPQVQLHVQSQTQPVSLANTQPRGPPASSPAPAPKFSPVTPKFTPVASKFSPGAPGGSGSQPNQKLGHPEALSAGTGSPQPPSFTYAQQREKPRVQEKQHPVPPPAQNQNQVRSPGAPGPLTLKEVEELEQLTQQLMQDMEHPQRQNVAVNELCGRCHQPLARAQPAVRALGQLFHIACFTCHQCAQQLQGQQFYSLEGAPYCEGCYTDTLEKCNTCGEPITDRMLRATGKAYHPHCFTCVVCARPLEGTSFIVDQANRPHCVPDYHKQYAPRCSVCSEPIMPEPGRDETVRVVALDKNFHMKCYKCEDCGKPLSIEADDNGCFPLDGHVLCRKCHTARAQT
UniProt O60232: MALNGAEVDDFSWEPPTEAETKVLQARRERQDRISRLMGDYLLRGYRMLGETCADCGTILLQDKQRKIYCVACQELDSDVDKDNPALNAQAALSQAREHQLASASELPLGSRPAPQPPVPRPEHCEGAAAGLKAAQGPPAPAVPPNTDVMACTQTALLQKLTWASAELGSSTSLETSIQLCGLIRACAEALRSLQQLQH
UniProt A6NFI3: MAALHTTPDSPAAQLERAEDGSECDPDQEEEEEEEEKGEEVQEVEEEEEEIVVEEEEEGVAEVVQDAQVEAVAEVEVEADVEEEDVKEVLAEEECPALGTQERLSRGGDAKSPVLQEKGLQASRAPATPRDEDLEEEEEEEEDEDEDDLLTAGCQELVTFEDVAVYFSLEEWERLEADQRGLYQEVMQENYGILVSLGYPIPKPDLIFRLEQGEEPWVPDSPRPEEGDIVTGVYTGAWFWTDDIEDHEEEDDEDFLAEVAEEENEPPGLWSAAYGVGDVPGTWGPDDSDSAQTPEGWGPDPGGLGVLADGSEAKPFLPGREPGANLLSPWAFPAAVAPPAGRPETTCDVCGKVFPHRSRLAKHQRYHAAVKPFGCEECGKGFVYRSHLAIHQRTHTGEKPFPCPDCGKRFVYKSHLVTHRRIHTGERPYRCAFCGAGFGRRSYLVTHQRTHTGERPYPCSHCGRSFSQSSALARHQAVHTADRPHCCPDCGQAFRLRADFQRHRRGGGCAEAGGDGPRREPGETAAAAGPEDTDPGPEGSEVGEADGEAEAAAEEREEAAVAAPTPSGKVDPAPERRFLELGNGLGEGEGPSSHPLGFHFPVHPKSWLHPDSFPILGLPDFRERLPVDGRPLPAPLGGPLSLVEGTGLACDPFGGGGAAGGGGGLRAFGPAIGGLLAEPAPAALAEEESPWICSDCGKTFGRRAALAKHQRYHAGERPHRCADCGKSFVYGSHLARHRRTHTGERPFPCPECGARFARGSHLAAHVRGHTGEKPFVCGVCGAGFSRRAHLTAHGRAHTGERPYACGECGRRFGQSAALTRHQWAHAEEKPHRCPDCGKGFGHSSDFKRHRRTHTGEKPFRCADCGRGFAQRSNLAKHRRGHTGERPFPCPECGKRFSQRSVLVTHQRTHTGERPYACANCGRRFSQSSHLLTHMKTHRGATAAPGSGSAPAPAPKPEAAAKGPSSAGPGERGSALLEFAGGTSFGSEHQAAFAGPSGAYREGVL
UniProt P17026: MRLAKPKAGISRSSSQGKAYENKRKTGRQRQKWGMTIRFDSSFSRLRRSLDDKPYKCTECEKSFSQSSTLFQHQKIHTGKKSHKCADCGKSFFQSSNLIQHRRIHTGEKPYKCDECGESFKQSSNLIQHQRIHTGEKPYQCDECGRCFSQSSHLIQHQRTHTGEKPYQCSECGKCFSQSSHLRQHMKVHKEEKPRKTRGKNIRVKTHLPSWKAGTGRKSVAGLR
UniProt Q9UDW3: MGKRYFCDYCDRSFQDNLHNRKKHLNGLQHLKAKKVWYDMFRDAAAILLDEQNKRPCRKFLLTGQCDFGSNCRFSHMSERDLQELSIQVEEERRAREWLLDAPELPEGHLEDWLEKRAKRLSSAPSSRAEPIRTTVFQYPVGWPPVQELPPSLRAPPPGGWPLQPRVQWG
UniProt Q9C0G0: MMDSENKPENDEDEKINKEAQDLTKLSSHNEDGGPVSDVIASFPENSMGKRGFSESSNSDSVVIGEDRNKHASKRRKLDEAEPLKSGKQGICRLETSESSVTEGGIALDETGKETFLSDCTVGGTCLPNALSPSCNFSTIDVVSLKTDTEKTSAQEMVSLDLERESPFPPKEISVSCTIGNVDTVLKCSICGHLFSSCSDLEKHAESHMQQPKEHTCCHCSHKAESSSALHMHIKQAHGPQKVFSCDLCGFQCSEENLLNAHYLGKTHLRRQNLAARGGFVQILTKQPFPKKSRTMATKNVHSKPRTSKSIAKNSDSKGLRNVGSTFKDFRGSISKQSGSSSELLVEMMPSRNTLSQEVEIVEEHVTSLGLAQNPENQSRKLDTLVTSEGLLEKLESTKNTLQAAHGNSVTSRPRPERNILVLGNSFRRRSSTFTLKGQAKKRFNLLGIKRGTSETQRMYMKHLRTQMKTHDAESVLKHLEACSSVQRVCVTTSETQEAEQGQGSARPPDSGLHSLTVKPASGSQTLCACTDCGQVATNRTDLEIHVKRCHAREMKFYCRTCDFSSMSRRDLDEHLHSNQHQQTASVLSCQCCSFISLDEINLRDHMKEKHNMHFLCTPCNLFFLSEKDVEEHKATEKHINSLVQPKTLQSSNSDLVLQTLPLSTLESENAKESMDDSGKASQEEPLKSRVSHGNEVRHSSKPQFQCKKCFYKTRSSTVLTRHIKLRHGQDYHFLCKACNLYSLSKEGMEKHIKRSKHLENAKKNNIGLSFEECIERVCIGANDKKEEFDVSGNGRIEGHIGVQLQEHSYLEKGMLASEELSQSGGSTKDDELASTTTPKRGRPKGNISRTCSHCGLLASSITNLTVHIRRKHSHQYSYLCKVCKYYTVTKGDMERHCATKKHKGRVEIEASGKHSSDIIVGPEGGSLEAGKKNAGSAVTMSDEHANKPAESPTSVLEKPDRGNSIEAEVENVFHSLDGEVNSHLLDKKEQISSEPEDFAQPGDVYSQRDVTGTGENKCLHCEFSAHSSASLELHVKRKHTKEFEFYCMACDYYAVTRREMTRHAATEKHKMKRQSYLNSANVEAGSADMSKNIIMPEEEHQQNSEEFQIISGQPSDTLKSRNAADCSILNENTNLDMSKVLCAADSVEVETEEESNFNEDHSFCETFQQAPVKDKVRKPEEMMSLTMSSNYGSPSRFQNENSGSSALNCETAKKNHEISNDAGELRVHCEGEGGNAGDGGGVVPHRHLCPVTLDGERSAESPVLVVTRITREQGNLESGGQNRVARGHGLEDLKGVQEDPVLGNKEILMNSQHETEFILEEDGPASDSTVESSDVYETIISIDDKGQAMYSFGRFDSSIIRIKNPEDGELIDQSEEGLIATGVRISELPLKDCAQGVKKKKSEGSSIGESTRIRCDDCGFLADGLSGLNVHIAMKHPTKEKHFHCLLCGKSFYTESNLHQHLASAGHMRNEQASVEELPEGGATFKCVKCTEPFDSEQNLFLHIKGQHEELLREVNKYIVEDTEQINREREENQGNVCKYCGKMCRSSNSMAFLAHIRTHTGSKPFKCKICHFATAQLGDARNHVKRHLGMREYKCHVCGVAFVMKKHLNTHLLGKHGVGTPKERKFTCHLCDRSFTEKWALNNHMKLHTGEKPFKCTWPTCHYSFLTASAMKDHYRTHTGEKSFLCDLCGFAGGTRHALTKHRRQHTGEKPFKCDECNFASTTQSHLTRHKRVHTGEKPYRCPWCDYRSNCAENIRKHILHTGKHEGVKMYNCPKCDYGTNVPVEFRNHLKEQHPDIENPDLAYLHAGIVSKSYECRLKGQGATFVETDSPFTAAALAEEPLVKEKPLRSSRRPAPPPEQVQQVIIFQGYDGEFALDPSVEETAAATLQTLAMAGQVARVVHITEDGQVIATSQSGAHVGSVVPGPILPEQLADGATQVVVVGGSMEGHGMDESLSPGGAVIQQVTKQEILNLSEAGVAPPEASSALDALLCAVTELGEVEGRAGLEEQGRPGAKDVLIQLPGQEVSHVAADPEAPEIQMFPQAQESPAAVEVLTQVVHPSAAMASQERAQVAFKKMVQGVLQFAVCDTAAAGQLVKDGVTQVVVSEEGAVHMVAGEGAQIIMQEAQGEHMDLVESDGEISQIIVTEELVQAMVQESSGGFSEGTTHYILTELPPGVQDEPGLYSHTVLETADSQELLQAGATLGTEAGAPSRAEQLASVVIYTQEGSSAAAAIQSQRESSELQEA
UniProt P17019: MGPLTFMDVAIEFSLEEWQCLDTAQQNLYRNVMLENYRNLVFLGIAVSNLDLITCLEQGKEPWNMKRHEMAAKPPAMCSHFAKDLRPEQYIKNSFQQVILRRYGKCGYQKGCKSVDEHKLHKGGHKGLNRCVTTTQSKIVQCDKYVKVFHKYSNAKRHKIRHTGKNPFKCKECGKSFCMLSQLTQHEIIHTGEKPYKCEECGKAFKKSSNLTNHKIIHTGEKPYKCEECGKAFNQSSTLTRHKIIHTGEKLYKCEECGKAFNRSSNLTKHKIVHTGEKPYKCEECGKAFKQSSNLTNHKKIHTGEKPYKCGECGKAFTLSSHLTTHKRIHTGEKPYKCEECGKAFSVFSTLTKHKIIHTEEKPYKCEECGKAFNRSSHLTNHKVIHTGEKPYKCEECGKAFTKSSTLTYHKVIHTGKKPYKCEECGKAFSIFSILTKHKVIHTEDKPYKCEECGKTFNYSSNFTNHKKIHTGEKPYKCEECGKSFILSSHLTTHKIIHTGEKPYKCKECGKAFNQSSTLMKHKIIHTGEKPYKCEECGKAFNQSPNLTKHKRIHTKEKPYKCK
UniProt Q9UK10: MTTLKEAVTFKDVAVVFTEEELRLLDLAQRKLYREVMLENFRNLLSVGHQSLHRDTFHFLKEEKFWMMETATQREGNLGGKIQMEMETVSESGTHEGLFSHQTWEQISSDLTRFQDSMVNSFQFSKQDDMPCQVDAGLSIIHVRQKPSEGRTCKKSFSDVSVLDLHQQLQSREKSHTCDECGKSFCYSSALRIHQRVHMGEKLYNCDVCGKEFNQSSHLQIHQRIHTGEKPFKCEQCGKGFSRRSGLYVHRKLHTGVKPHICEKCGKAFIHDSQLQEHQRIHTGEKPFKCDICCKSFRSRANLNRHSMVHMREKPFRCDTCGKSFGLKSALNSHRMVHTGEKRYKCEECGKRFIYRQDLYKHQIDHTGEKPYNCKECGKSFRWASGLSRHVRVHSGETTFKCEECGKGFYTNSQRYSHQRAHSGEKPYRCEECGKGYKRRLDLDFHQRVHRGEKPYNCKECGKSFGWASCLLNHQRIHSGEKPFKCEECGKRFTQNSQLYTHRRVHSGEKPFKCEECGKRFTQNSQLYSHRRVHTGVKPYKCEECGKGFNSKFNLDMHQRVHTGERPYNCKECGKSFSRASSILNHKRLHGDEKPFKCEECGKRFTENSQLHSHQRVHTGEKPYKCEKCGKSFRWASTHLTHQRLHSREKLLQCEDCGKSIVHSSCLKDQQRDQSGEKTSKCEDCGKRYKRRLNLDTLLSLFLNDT
UniProt Q9Y2X9: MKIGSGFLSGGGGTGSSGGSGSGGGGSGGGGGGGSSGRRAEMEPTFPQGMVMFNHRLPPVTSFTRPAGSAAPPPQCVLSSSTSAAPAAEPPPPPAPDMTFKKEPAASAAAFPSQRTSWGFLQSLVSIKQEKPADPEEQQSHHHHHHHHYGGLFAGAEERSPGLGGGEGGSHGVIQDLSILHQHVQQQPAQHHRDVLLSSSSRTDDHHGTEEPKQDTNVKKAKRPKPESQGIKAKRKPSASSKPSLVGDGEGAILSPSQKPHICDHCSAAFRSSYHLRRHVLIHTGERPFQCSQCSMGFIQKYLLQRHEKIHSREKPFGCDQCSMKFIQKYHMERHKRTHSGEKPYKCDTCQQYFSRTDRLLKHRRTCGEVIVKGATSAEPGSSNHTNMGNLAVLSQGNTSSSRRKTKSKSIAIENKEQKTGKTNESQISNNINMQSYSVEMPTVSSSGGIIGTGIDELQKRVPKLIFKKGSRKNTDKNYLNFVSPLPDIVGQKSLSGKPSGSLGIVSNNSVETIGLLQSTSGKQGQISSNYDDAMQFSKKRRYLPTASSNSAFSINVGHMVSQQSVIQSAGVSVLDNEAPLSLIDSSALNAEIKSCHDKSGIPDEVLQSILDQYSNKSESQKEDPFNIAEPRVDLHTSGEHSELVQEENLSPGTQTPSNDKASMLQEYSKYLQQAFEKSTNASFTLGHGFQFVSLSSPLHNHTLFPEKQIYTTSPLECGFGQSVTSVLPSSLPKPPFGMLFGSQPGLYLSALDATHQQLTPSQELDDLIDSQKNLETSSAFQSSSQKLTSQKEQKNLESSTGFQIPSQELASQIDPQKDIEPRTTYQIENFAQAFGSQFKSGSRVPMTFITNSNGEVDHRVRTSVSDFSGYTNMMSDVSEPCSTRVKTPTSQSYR

vorinostat = compound: O=C(CCCCCCC(=O)Nc1ccccc1)NO [vorinostat]
Procedure, shortened: as §1

silmitasertib = compound: O=C(O)c1ccc2c(c1)nc(Nc1cccc(Cl)c1)c1ccncc12 [silmitasertib]
Procedure, shortened: as §1

[2] = compound: O=C1NC(=O)C(c2cnc3ccccn23)=C1c1cn2c3c(cc(F)cc13)CN(C(=O)N1CCCCC1)CC2
Procedure, shortened: as §1

entospletinib = compound: c1cn2cc(-c3ccc4cn[nH]c4c3)nc(Nc3ccc(N4CCOCC4)cc3)c2n1 [entospletinib]
Procedure, shortened: as §1

Target	log2 fold change [1]	log2 fold change (vorinostat)	log2 fold change (silmitasertib)	log2 fold change [2]	log2 fold change (entospletinib)
ZNF207 isoform 4 (UniProt O43670)	inactive: 0.021	inactive: 0.102	inactive: -0.02	inactive: 0	inactive: -0.025
ZNF277 (UniProt Q9NRM2)	inactive: -0.007	inactive: -0.121	inactive: 0.094	inactive: -0.044	inactive: 0.025
ZYX (UniProt Q15942)	inactive: -0.011	inactive: 0.127	inactive: 0.01	inactive: 0.009	inactive: -0.012
ZNF93 (UniProt P35789)	inactive: 0.008	inactive: 0.022	inactive: -0.117	inactive: -0.045	inactive: 0.063
ZNRD2 (UniProt O60232)	inactive: -0.07	inactive: -0.106	inactive: -0.002	inactive: -0.021	inactive: -0.022
ZNF316 (UniProt A6NFI3)	inactive: 0.12	inactive: 0.004	inactive: -0.047	inactive: 0.012	inactive: -0.025
ZNF217 (UniProt O75362)	inactive: 0	active: -0.301	inactive: 0.047	inactive: -0.054	inactive: -0.061
ZZZ3 (UniProt Q8IYH5)	inactive: 0.005	inactive: -0.302	inactive: -0.073	inactive: 0.142	inactive: -0.021
ZNF22 (UniProt P17026)	inactive: -0.133	inactive: 0.192	inactive: -0.087	inactive: 0.058	inactive: 0.018
ZNF672 (UniProt Q499Z4)	inactive: -0.026	inactive: 0.275	inactive: 0.067	inactive: -0.008	inactive: -0.003
ZNF131 (UniProt P52739)	inactive: 0.038	inactive: -0.037	inactive: 0.042	inactive: 0	inactive: 0.022
ZMAT5 (UniProt Q9UDW3)		inactive: -0.004	inactive: 0.031		
ZNF407 (UniProt Q9C0G0)	inactive: 0.034	inactive: -0.081	inactive: -0.163		inactive: -0.003
ZNF800 (UniProt Q2TB10)		inactive: 0.196	inactive: 0.003		
ZNF77 (UniProt Q15935)	inactive: 0.16				inactive: 0.028
ZNF708 (UniProt P17019)	inactive: 0.025				inactive: 0.102
ZNF225 (UniProt Q9UK10)	inactive: 0.467	inactive: 0.274	inactive: -0.011		inactive: -0.056
ZRANB2 (UniProt O95218)	inactive: 0.009	inactive: 0.095	inactive: 0.022	inactive: 0	inactive: -0.018
ZNF281 (UniProt Q9Y2X9)		active: -0.403	inactive: -0.084	inactive: -0.072	
ZNRF2 (UniProt Q8NHG8)	inactive: 0.011			inactive: -0.008	inactive: -0.068
ZMYM3 (UniProt Q14202)	inactive: -0.013	inactive: -0.161	inactive: -0.01	inactive: -0.019	inactive: 0.019
ZNF579 (UniProt Q8NAF0)	inactive: -0.085	inactive: 0.109	inactive: -0.022	inactive: 0.058	inactive: -0.023
ZNHIT6 (UniProt Q9NWK9)	inactive: 0.001	active: -0.218	inactive: -0.041	inactive: 0.002	inactive: -0.062
ZWILCH (UniProt Q9H900)	inactive: -0.032	inactive: -0.158	inactive: 0.005	inactive: -0.019	inactive: -0.025
ZMPSTE24 (UniProt O75844)	inactive: -0.002	inactive: 0.114	inactive: -0.034	inactive: -0.02	inactive: 0.006
ZNF358 (UniProt Q9NW07)		inactive: 0.08	inactive: 0.143		
ZNF618 (UniProt Q5T7W0)	inactive: 0.041	inactive: 0.002	inactive: -0.058	inactive: -0.02	inactive: 0.004
hCG_1984214 (UniProt I3L0E3)	inactive: 0.035	inactive: -0.165	inactive: 0.111	inactive: 0.048	inactive: -0.044

Part of the list above, bar-delimited.
Target | log2 fold change [1] | log2 fold change (vorinostat) | log2 fold change (silmitasertib) | log2 fold change [2] | log2 fold change (entospletinib)
ZNHIT6 (UniProt Q9NWK9) | inactive: 0.001 | active: -0.218 | inactive: -0.041 | inactive: 0.002 | inactive: -0.062
ZWILCH (UniProt Q9H900) | inactive: -0.032 | inactive: -0.158 | inactive: 0.005 | inactive: -0.019 | inactive: -0.025
